From PMC8615856
No constants are given. Whether binding was seen depends on the method and setting.

Protein sequences, listed by entry. Tags and fused reporters are not part of them.
UniProt P00921: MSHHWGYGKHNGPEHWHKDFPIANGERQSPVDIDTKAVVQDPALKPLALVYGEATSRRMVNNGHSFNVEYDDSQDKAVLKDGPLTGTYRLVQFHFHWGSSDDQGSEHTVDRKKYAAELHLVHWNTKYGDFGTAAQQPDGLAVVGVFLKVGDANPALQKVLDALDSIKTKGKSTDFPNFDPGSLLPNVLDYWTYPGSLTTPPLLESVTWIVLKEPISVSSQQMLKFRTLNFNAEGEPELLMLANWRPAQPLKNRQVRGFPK

Biological target: bovine carbonic anhydrase B (bovine) (UniProt P00921)
Assay: SEC; Superdex 200 10/300 GL, 50 mM sodium phosphate with citric acid, pH 2.7; BCAB before hydrolysis diluted to 0.004 mg/mL; both purified

bovine carbonic anhydrase B (from UniProt P00921 1-260) (enzyme)
binding: no binding (condition: diluted to 0.004 mg/mL)
